Literature values, collected in patent US20220339103A1, “Lung-targeted corticosteroid treatment in viral respiratory disease, COVID-19 and ARDS (acute respiratory distress syndrome)” (Bodor Laboratories, Inc., priority 2021, published 2022).

Tested on: cotton pellet granuloma
Settings: ratio of relative potencies, cotton pellet granuloma test

Structure (SMILES) | TI, therapeutic index
CCCC(=O)O[C@]1(C(=O)CO)CC[C@H]2[C@@H]3CCC4=CC(=O)CC[C@]4(C)[C@H]3[C@@H](O)C[C@@]21C [Hydrocortisone 17α-butyrate (HB) (0.1%), Hydrocortisone 17α-butyrate] | 1.3
CCCCC(=O)O[C@]1(C(=O)CO)[C@@H](C)C[C@H]2[C@@H]3CCC4=CC(=O)C=C[C@]4(C)[C@@]3(F)[C@@H](O)C[C@@]21C [Betamethasone 17α-valerate (BV) (0.12%), Betamethasone 17α-valerate] | 1.0
CCC(=O)O[C@]1(C(=O)CCl)[C@@H](C)C[C@H]2[C@@H]3CCC4=CC(=O)C=C[C@]4(C)[C@@]3(F)C(=O)C[C@@]21C [Clobetasone-17α-propi onate (KP) (0.1%), Clobetasone-17α-propi onate] | 1.5
CCOC(=O)O[C@]1(C(=O)OCCl)CC[C@H]2[C@@H]3CCC4=CC(=O)C=C[C@]4(C)[C@H]3[C@@H](O)C[C@@]21C [Loteprednol Etabonate, chloromethyl 17α-ethoxycarbonyloxy-11β-hydroxyandrosta-1,4-dien-3-one-17β-carboxylate] | 24.0

Tested on: airway eosinophilia / thymus weight
Settings: intrapulmonal; dose reducing thymus weight / dose causing about 50-60% inhibition of airway eosinophilia, Brown Norway rats

Structure (SMILES) | Ratios between the lowest side-effect-inducing dose and a moderately effective therapeutic dose
CCC(=O)OCC(=O)[C@@]1(OC(=O)CC)[C@@H](C)C[C@H]2[C@@H]3CCC4=CC(=O)C=C[C@]4(C)[C@@]3(Cl)[C@@H](O)C[C@@]21C [Beclomethasone Dipropionate] | 0.3
CCOC(=O)O[C@]1(C(=O)OCCl)CC[C@H]2[C@@H]3CCC4=CC(=O)C=C[C@]4(C)[C@H]3[C@@H](O)C[C@@]21C [Loteprednol Etabonate, chloromethyl 17α-ethoxycarbonyloxy-11β-hydroxyandrosta-1,4-dien-3-one-17β-carboxylate] | 40
